Laboratory results published in article doi:10.1101/2025.01.13.632716.
No constants are given. Whether binding was seen depends on the method and setting. A result given as binding can be weak or reduced; the word gives no strength. Tags and fused reporters may be left off the sequences shown. For part of these data: In cells and extracts the contact can be indirect.

B1: DnaN fused to the T18 fragment of adenylate cyclase at the C-terminus (protein, UniProt B8GXP6 1-372)
chain: MKLTIERAALLKALGHVQSVVERRNTIPILSNILLSAEGDRLSFSATDLDMEIIDEGFAQIDVPGQITAPAHTLYEIVRKLPDGADVSLSFSGDDPRLVIQAGRSRFNLPVLPAGDFPVMSSDGLSSRIAVDTNELIRLIDKTRFAISTEETRYYLNGLYVHTVNEGGETKLRAVATDGHRLALAEMPAPEGAVGIPGVIVPRKTIAEARRLMESAGETVDLQVSPQKVRFEFGAAALTSKVIDGAFPDYMRVIPRDNAKILTLDNDLFAKAVDRVATISAEKSRSVKLAVEPGRITLTVRNMEAGQAVEEVEVDYDGEPFEIGFNARYLLDVCGQIAGPQAEFRFADPASPTLVVDPVDPGVKYVLMPLRV
B2: DnaN-YFP (protein, UniProt B8GXP6 1-372)
chain: MKLTIERAALLKALGHVQSVVERRNTIPILSNILLSAEGDRLSFSATDLDMEIIDEGFAQIDVPGQITAPAHTLYEIVRKLPDGADVSLSFSGDDPRLVIQAGRSRFNLPVLPAGDFPVMSSDGLSSRIAVDTNELIRLIDKTRFAISTEETRYYLNGLYVHTVNEGGETKLRAVATDGHRLALAEMPAPEGAVGIPGVIVPRKTIAEARRLMESAGETVDLQVSPQKVRFEFGAAALTSKVIDGAFPDYMRVIPRDNAKILTLDNDLFAKAVDRVATISAEKSRSVKLAVEPGRITLTVRNMEAGQAVEEVEVDYDGEPFEIGFNARYLLDVCGQIAGPQAEFRFADPASPTLVVDPVDPGVKYVLMPLRV

Experiments:
[1] = target: IncA fused to T25 fragment of adenylate cyclase at N-terminus (Caulobacter crescentus); assay: two-hybrid
[2] = target: IncA^D115A fused to T25 fragment of adenylate cyclase at the N-terminus (Caulobacter crescentus); assay: two-hybrid
[3] = target: C-terminal tandem affinity purification (TAP)-tagged IncA (Caulobacter crescentus); assay: co-IP

| Binder | binding [1] | binding [2] | binding [3] |
| --- | --- | --- | --- |
| B1 | binds | binds |  |
| B2 |  |  | binds |
